This passage reports binding results from PMC11876313.

The chains behind the UniProt entries cited, without tags or fusion partners.
UniProt Q61188: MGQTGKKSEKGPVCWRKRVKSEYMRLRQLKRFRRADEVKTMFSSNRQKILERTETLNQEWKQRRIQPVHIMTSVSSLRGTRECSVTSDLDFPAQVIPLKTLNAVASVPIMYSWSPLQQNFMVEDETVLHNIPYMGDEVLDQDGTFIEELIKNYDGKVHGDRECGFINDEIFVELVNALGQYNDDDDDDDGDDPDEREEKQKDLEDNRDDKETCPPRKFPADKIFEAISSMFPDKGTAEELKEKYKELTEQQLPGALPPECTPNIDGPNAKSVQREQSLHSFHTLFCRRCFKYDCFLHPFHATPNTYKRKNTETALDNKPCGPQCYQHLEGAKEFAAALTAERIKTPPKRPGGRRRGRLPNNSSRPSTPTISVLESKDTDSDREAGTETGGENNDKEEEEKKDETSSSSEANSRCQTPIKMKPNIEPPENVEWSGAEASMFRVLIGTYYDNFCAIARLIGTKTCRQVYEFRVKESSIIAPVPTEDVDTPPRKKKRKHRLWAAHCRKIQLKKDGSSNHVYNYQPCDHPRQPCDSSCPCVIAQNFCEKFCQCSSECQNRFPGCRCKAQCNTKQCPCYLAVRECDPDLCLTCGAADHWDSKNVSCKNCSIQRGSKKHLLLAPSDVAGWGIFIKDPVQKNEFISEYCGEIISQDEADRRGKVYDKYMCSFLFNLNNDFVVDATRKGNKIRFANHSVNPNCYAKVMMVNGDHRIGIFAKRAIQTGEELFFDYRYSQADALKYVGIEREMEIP
UniProt Q80U70: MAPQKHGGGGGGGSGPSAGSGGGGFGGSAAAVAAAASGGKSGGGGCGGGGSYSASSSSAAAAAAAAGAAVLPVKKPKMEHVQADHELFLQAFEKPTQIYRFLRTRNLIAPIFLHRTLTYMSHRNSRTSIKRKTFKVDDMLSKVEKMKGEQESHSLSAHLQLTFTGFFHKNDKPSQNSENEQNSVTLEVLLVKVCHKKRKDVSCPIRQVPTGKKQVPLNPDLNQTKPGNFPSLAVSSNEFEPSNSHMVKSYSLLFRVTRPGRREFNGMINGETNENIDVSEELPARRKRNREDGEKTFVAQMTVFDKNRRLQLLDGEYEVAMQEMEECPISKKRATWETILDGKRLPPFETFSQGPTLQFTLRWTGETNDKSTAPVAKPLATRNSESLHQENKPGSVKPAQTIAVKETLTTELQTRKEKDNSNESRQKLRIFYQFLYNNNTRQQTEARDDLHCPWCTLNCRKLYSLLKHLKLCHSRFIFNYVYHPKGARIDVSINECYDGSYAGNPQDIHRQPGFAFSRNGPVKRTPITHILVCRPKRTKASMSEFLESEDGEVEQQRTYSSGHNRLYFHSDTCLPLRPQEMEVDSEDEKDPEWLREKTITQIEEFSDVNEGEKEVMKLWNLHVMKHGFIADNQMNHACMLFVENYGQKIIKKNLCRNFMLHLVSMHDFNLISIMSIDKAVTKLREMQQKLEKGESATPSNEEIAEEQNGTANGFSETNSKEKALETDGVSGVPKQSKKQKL

These are yes or no findings as the source states them, for the method shown. In cells and extracts the contact can be indirect. Some binding calls cover weakened binding; strength is not graded here. For some assays here: Sequences can lack the tags named with a protein.

The target of experiment [1] is T1, 3xFlag-tagged FL-AUTS2 (mouse).
T1 sequence: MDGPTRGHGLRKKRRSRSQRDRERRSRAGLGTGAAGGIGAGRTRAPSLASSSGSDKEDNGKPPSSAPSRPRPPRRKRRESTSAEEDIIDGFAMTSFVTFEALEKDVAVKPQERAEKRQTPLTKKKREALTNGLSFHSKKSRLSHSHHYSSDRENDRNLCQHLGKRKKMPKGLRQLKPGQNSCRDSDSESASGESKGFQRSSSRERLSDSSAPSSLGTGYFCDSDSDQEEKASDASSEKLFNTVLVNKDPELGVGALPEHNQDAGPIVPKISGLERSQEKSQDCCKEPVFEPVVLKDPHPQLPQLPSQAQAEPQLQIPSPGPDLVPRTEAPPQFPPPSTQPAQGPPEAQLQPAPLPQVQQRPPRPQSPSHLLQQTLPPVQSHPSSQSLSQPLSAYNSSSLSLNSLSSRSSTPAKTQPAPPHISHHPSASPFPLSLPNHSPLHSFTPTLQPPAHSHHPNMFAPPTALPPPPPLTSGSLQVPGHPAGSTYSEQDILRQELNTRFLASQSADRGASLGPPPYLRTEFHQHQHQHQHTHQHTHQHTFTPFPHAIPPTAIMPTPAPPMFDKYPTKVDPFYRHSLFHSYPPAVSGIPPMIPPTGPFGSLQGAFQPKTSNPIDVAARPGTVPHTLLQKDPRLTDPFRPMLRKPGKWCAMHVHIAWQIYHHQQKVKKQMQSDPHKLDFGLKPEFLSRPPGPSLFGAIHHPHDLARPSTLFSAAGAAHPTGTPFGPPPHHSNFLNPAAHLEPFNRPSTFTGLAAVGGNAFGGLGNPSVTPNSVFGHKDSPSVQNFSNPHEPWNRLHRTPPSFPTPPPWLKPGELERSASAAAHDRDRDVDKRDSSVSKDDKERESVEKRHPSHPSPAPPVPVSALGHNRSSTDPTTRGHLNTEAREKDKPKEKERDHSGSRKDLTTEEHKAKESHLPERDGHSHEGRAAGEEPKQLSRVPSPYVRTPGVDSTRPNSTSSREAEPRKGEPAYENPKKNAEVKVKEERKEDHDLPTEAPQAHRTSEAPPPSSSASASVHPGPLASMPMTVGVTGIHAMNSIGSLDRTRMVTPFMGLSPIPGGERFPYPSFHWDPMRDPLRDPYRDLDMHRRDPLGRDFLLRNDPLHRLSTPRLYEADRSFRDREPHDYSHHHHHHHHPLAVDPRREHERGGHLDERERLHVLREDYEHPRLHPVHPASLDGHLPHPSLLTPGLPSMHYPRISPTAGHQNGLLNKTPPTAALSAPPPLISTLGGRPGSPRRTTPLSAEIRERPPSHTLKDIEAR
Briefly: co-IP; nuclear lysates of transfected Neuro2a cells (lysis buffer 50 mM Tris-HCl pH 7.5, 125 mM NaCl, 1 mM EDTA, 5% glycerol, 0.5% NP-40, RNaseA; sonicated); mouse anti-FLAG on Dynabeads protein G, 4 h at 4 °C; Western blot with anti-EZH2, anti-SUZ12, anti-FLAG; mock: 3xFlag empty vector.

In experiment [2] the target is T2, AUTS2 (endogenous, embryonic mouse cerebral cortex) (mouse (endogenous in embryonic cerebral cortex)).
T2 sequence: T1 sequence
As to the kind of experiment: proximity ligation; Duolink PLA with rabbit anti-AUTS2 and mouse anti-EZH2 in fixed, permeabilised sorted EGFP+ cells from E15.5 Eomes T2A-d2EGFP/+ cortices; control: a single antibody.

Experiment [3] has the same target. As to the kind of experiment: co-IP; nuclear lysates of E14.5 mouse cerebral cortices (lysis buffer 50 mM Tris-HCl pH 7.5, 125 mM NaCl, 1 mM EDTA, 5% glycerol, 0.5% NP-40, RNaseA; sonicated); rabbit anti-AUTS2 or rabbit control IgG on Dynabeads protein G, 4 h at 4 °C; Western blot with anti-EZH2, anti-SUZ12, anti-AUTS2.

With “EZH2 (endogenous, Neuro2a) (from UniProt Q61188 1-746)”, the binding entry in experiment [1] is given as “binds”.

With “EZH2 (endogenous, embryonic mouse cerebral cortex) (from UniProt Q61188 1-746)”, the binding entry in experiment [2] and in experiment [3] was “binds” throughout.

Take “SUZ12 (endogenous, Neuro2a) (from UniProt Q80U70 1-741)”: the binding result in experiment [1] was “binds”.

Regarding “SUZ12 (endogenous, embryonic mouse cerebral cortex) (from UniProt Q80U70 1-741)”, the binding entry in experiment [3] is “binds”.
